# Reference: PubChem BioAssay AID624287 (National Center for Advancing Translational Sciences (NCATS), 2012)
# In all, about 340,000 compounds went through this assay and about 420 (0.12%) were called active. Listed are the inconclusive results; actives and inactives stand elsewhere. Calls follow the shape of the dose curve; as a rule, active = well fitted activation curve with a large enough effect; inconclusive = small, poorly fitted or top-dose-only effect, or another doubt; inactive = no such curve, though single readings can be large or run the other way; cell line not stated here.
# Test: qHTS for Agonist of gsp, the Etiologic Mutation Responsible for Fibrous Dysplasia/McCune-Albright Syndrome: qHTS; also: nearly all actives have a fitted effect of over 60% in size
# Conditions: gsp mutant cells, cAMP HTRF, 30 min
# Potency is read from the fitted curve at half-maximal effect.
row,SMILES,Potency
1,CC(=O)N(c1ccccc1)C1CCNCC1,inconclusive: 56.2 µM
